Measured values as given in article PMC4810121, “Proteomics Analysis Reveals Novel RASSF2 Interaction Partners” (Cancers, 2016).
No constants are given. Whether binding was seen depends on the method and setting. In cells and extracts the contact can be indirect. Some results given as binding are weak or reduced against the parent protein; the word gives no strength. For some of these results: Where a sequence is shown, tags or fusion partners need not be part of it. Each block holds one binder with its values, some of them ahead of it.

Chains of the proteins cited; added tags and fusions are not shown.
UniProt P08670: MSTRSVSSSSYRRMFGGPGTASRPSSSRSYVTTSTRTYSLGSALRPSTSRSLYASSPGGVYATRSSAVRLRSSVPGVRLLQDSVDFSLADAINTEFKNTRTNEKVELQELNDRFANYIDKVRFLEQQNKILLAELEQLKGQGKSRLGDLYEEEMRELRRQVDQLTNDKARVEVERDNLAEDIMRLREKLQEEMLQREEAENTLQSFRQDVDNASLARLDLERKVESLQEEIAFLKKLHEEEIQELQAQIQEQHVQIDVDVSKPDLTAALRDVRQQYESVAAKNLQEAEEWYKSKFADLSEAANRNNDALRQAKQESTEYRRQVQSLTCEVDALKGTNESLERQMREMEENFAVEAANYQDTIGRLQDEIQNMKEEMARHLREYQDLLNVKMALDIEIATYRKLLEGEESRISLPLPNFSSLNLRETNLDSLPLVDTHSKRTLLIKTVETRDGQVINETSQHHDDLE

Legend:
[1] = target: T1, RASSF2 (expression construct precipitated with anti-Flag) (UniProt P50749); test: co-IP; HEK-293T co-transfected with RASSF2, C1QBP and with or without activated K-Ras for 24 hours; lysates immunoprecipitated with anti-Flag, blotted with anti-Flag and anti-GFP
T1 sequence: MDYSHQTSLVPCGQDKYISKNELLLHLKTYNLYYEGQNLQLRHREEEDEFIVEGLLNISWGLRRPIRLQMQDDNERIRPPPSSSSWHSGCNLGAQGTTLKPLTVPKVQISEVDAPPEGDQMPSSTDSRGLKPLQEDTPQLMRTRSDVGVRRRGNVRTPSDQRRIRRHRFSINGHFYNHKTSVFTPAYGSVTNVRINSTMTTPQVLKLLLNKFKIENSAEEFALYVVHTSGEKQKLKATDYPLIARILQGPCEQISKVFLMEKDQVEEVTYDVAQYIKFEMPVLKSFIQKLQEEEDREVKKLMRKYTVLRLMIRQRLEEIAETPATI

[2] = target: endogenous C1QBP (H441) (human (endogenous in H441)) (UniProt Q07021); test: co-IP; endogenous proteins; H441 lung cancer cell lysates immunoprecipitated with anti-C1QBP, blotted with anti-RASSF2
GFP-tagged Vimentin [3] = target: GFP-tagged Vimentin (UniProt P08670); test: co-IP; as a5, with activated K-Ras co-expressed
GFP-tagged Vimentin [4] = target: GFP-tagged Vimentin (UniProt P08670); test: co-IP; HEK-293T co-transfected with HA-RASSF2 and GFP-Vimentin, without activated K-Ras; lysates immunoprecipitated with anti-GFP, blotted with anti-HA

binding [1]: binds
B1: GFP-C1QBP (natural protein, UniProt Q07021 74-282, looked up)
chain: LHTDGDKAFVDFLSDEIKEERKIQKHKTLPKMSGGWELELNGTEAKLVRKVAGEKITVTFNINNSIPPTFDGEEEPSQGQKVEEQEPELTSTPNFVVEVIKNDDGKKALVLDCHYPEDEVGQEDEAESDIFSIREVSFQSTGESEWKDTNYTLNTDSLDWALYDHLMDFLADRGVDNTFADELVELSTALEHQEYITFLEDLKSFVKSQ
notes: C1QBP; cDNA from GeneCopoeia, PCR amplified and cloned into pEGFP-C1; source: HEK-293T, transfected, in lysate

binding [2]: binds
B2: endogenous RASSF2 (protein, UniProt P50749 1-326)
chain: MDYSHQTSLVPCGQDKYISKNELLLHLKTYNLYYEGQNLQLRHREEEDEFIVEGLLNISWGLRRPIRLQMQDDNERIRPPPSSSSWHSGCNLGAQGTTLKPLTVPKVQISEVDAPPEGDQMPSSTDSRGLKPLQEDTPQLMRTRSDVGVRRRGNVRTPSDQRRIRRHRFSINGHFYNHKTSVFTPAYGSVTNVRINSTMTTPQVLKLLLNKFKIENSAEEFALYVVHTSGEKQKLKATDYPLIARILQGPCEQISKVFLMEKDQVEEVTYDVAQYIKFEMPVLKSFIQKLQEEEDREVKKLMRKYTVLRLMIRQRLEEIAETPATI

binding (GFP-tagged Vimentin [4]): binds
B3: HA-tagged RASSF2 (protein, UniProt P50749 1-326)
chain: MDYSHQTSLVPCGQDKYISKNELLLHLKTYNLYYEGQNLQLRHREEEDEFIVEGLLNISWGLRRPIRLQMQDDNERIRPPPSSSSWHSGCNLGAQGTTLKPLTVPKVQISEVDAPPEGDQMPSSTDSRGLKPLQEDTPQLMRTRSDVGVRRRGNVRTPSDQRRIRRHRFSINGHFYNHKTSVFTPAYGSVTNVRINSTMTTPQVLKLLLNKFKIENSAEEFALYVVHTSGEKQKLKATDYPLIARILQGPCEQISKVFLMEKDQVEEVTYDVAQYIKFEMPVLKSFIQKLQEEEDREVKKLMRKYTVLRLMIRQRLEEIAETPATI
binding (GFP-tagged Vimentin [3]): no binding (condition: with activated K-Ras co-expressed)
